Results deposited as PubChem BioAssay AID743454 (Peter MacCallum Cancer Centre, 2014).
Test: 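Genes whose loss kills vorinostat-resistant colon cancer cells under vorinostat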 (primary screen). Cell system: human HCT116-VR colon cancer cells, selected for vorinostat resistance. Knock-down reagent: siRNA pool against human genes, 40 nM siRNA pool. Duration: vorinostat for 24 h, read-out about 72 h after transfection. Treatment: vorinostat at 2.5 µM final. Detection: 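Two measures, CellTiter-Fluor viability and luminescent caspase 3/7 activity, each as fold change against same-plate mock wells, mean of duplicates, then screen-wide robust z-score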. Reading the numbers: viability robust z-score: higher = more viable cells than screen typical; caspase robust z-score: higher = more caspase 3/7 activity than screen typical. Call rule: 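a knock-down is a hit when classed RV1 or RV2 for lowered viability, or CA1 or CA2 for caspase activation; those lethal without drug were dropped; hits were retested singly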.
Here is a random part of about 18,000 deposited reagents. 450 of all reagents (2.5%) count as active. 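Single biological run; no consistent viability z cut-off exists, so the class columns, not z-scores, define the calls.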 A number with no mark means an inactive call.

Gene | viability hit class | caspase hit class | viability robust z-score | caspase robust z-score
CADPS2 (GeneID 93664) | no change | no change | -0.88 | 1.14
SYNC (GeneID 81493) | no change | no change | -0.9 | 0.38
RHOB (GeneID 388) | no change | no change | 0 | 0.26
COG8 (GeneID 84342) | no change | no change | 0.07 | 0.33
OR5AU1 (GeneID 390445) | no change | no change | 1.32 | -0.37
NPY1R (GeneID 4886) | no change | no change | 0.42 | -0.4
USP8 (GeneID 9101) | no change | no change | 0.31 | -0.18
TP53I3 (GeneID 9540) | no change | no change | -1.63 | 0.28
AKAP5 (GeneID 9495) | no change | no change | -0.6 | -0.38
UNC80 (GeneID 285175) | no change | no change | -2.05 | -0.4
RNASEH2C (GeneID 84153) | no change | no change | 1.42 | 1.8
MAGEA2B (GeneID 266740) | no change | no change | -1.06 | -0.6
TRABD (GeneID 80305) | no change | no change | -0.35 | 0.28
OR2H2 (GeneID 7932) | no change | no change | 0.3 | -0.72
AP3S1 (GeneID 1176) | no change | no change | -1.31 | -1.04
EIF4A3 (GeneID 9775) | no change | no change | -4.97 | 1.02
TP53TG3 (GeneID 24150) | no change | no change | -0.84 | 0.76
HVCN1 (GeneID 84329) | no change | no change | -2.45 | 1.41
FBN3 (GeneID 84467) | no change | no change | -0.24 | 0.43
OR51D1 (GeneID 390038) | no change | no change | 0.94 | 0.98
PLB1 (GeneID 151056) | no change | no change | -0.94 | -1.02
FBLN1 (GeneID 2192) | no change | no change | 1.31 | -0.56
IMPDH1 (GeneID 3614) | no change | no change | 0.44 | -0.94
GP1BA (GeneID 2811) | no change | no change | 0.97 | 0.48

In a second layout: results already given.
UNC80 (GeneID 285175)
- viability hit class: no change
- caspase hit class: no change
- viability robust z-score: -2.05
- caspase robust z-score: -0.4

RNASEH2C (GeneID 84153)
- viability hit class: no change
- caspase hit class: no change
- viability robust z-score: 1.42
- caspase robust z-score: 1.8

MAGEA2B (GeneID 266740)
- viability hit class: no change
- caspase hit class: no change
- viability robust z-score: -1.06
- caspase robust z-score: -0.6

TRABD (GeneID 80305)
- viability hit class: no change
- caspase hit class: no change
- viability robust z-score: -0.35
- caspase robust z-score: 0.28

OR2H2 (GeneID 7932)
- viability hit class: no change
- caspase hit class: no change
- viability robust z-score: 0.3
- caspase robust z-score: -0.72

AP3S1 (GeneID 1176)
- viability hit class: no change
- caspase hit class: no change
- viability robust z-score: -1.31
- caspase robust z-score: -1.04

EIF4A3 (GeneID 9775)
- viability hit class: no change
- caspase hit class: no change
- viability robust z-score: -4.97
- caspase robust z-score: 1.02

Next results follow.
Gene | viability hit class | caspase hit class | viability robust z-score | caspase robust z-score
SPATA13 (GeneID 221178) | no change | no change | 1.32 | 0.18
GNAI1 (GeneID 2770) | no change | no change | 0.54 | -0.25
OR2T4 (GeneID 127074) | no change | no change | -0.25 | 0.26
GBP5 (GeneID 115362) | no change | no change | 0.36 | 3.76
DIAPH2 (GeneID 1730) | no change | no change | -0.32 | 0.48
KRTAP6-2 (GeneID 337967) | no change | no change | 0.04 | -0.24
ZCCHC7 (GeneID 84186) | no change | no change | 0.08 | 4.68
HEXB (GeneID 3074) | no change | no change | 0.8 | 0.46
MGAT5B (GeneID 146664) | no change | no change | 0.58 | 1.57
PENK (GeneID 5179) | no change | no change | -0.34 | -0.86
APMAP (GeneID 57136) | no change | no change | -1.18 | -0.42
RPS27A (GeneID 6233) | no change | no change | -4.06 | -1.88
OR2T29 (GeneID 343563) | no change | no change | 1.38 | 0.04
HDGFL1 (GeneID 154150) | no change | no change | 1.1 | 0.07
NRSN1 (GeneID 140767) | no change | no change | 0.67 | -0.88
DRICH1 (GeneID 51233) | no change | no change | 1.55 | -0.76
MMP3 (GeneID 4314) | no change | no change | 0.32 | 0.08
OR2V2 (GeneID 285659) | no change | no change | 0.54 | -0.38
PFKFB4 (GeneID 5210) | no change | no change | -0.47 | 2.58
MXRA5 (GeneID 25878) | no change | no change | 0.81 | 0.29
TSPEAR (GeneID 54084) | no change | no change | 0.12 | 0.52
KRTAP5-11 (GeneID 440051) | no change | no change | 0 | -0.81
FFAR4 (GeneID 338557) | no change | no change | 0.64 | -0.66
MMP9 (GeneID 4318) | no change | no change | 0.72 | 0.62
ADAMTSL3 (GeneID 57188) | no change | no change | -0.36 | 0.01
MRPL37 (GeneID 51253) | no change | no change | 0.03 | -0.24
NLRP5 (GeneID 126206) | no change | no change | 0.07 | -0.78
PMCH (GeneID 5367) | no change | no change | 0.28 | -0.5
MYBL2 (GeneID 4605) | no change | no change | -1.21 | 0.36
SEPTIN1 (GeneID 1731) | no change | no change | 1 | 0.18
POLR2L (GeneID 5441) | no change (active) | CA2 (caspase activation) | -3.59 | 7.05
METTL8 (GeneID 79828) | no change | no change | -0.02 | -0.2
MOGS (GeneID 7841) | no change | no change | -0.13 | -0.38
SLC22A10 (GeneID 387775) | no change | no change | -0.25 | -0.7
PCDH12 (GeneID 51294) | no change | no change | 0.34 | 1.48
PAGE2B (GeneID 389860) | no change | no change | -0.22 | -0.48
CD160 (GeneID 11126) | no change | no change | -1.29 | -0.56
PPP1R13B (GeneID 23368) | no change | no change | 1.09 | -0.55
NRG1 (GeneID 3084) | no change | no change | -0.66 | 0.49
RPGRIP1 (GeneID 57096) | no change | no change | -0.82 | 1.88
DCAF15 (GeneID 90379) | no change | no change | 1.52 | -0.03
LCE1C (GeneID 353133) | no change | no change | -0.11 | 1.24
PPP1R13L (GeneID 10848) | no change | no change | -1.32 | 1.52
MOB3A (GeneID 126308) | no change | no change | -2.56 | 5.67
DDC (GeneID 1644) | no change | no change | -0.32 | 1.65
CDCA2 (GeneID 157313) | no change | no change | 0.24 | 0.06
DDRGK1 (GeneID 65992) | no change | no change | 0.35 | 0.84
BCAS4 (GeneID 55653) | no change | no change | 0.28 | 0.94
MRPS28 (GeneID 28957) | no change | no change | -0.03 | 2.48
